Tested on: municipal activated sludge
Experiment: Biodegradability assessment using the 301 F OECD protocol (standard protocol)
Details: for % biodeg (28 d) (Standard protocol): 28 days, 20±2° C., closed BOD flask, without emulsion; for Lag phase: period preceding the beginning of mineralization of the test substance, protocol not given

| Structure (SMILES) | % biodeg (28 d) (Standard protocol) [%] | Lag phase [days] |
| --- | --- | --- |
| CCCCCCCCCCCCCCC(C(=O)c1ccccc1)S(=O)(=O)[O-].[Na+] (stereo not shown) [PAKS-C16, reference compound] | 49 | 10 |
| CCCCCCCCCCCCCCC(C(O)c1ccccc1)S(=O)(=O)[O-].[Na+] (stereo not shown) [PAS-C16] | 45 | 4 |
